These are yes or no findings as the source states them, for the method shown. In cells and extracts the contact can be indirect. Some entries that bind do so weakly or less than the wild type. Sequences can lack the tags named with a protein.
Assays:
Assay in all cases: co-IP
[1] = target: T1, 3HA-Red1^1-730 (Saccharomyces cerevisiae) (UniProt P14291)
T1 sequence: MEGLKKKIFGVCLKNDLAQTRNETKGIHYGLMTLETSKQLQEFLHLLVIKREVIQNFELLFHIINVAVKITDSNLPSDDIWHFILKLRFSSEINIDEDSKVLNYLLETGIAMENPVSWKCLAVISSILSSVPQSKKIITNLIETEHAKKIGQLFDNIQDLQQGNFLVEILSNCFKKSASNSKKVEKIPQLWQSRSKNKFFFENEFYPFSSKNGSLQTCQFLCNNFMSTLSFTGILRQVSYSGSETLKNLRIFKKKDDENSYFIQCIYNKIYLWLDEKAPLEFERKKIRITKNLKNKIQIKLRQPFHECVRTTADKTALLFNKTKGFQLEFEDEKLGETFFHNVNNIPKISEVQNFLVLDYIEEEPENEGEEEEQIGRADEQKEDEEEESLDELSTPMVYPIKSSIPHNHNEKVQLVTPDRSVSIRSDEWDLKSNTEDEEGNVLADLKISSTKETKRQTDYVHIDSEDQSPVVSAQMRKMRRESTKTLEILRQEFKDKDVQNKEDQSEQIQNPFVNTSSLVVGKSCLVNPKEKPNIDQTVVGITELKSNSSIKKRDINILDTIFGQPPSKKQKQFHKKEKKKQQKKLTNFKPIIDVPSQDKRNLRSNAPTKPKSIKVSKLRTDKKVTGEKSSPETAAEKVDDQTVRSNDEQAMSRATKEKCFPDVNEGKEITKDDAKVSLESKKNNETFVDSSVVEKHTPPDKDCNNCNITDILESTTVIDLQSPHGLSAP

[2] = target: T2, 3HA-Red1^1-818 (Saccharomyces cerevisiae) (UniProt P14291)
T2 sequence: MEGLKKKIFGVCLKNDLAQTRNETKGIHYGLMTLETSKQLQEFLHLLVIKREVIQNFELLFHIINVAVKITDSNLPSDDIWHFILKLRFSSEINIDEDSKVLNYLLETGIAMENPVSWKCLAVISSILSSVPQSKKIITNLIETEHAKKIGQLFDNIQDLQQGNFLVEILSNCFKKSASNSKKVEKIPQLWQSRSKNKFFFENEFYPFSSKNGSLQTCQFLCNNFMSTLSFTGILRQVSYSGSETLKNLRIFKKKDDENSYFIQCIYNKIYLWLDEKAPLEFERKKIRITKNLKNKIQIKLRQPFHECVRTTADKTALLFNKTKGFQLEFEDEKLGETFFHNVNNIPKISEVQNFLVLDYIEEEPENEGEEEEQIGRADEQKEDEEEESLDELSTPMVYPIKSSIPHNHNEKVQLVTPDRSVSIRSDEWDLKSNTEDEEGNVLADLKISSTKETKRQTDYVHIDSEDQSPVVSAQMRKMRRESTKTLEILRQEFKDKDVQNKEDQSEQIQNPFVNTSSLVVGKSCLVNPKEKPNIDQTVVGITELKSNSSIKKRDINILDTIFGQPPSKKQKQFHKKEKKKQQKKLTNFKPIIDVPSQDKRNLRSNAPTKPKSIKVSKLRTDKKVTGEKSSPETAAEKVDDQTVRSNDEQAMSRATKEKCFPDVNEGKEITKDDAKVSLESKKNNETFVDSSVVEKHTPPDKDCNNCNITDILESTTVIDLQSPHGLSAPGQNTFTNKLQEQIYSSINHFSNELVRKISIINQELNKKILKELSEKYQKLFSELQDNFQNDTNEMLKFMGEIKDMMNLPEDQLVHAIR

[3] = target: T3, 3HA-Red1^346-827 (Saccharomyces cerevisiae) (UniProt P14291)
T3 sequence: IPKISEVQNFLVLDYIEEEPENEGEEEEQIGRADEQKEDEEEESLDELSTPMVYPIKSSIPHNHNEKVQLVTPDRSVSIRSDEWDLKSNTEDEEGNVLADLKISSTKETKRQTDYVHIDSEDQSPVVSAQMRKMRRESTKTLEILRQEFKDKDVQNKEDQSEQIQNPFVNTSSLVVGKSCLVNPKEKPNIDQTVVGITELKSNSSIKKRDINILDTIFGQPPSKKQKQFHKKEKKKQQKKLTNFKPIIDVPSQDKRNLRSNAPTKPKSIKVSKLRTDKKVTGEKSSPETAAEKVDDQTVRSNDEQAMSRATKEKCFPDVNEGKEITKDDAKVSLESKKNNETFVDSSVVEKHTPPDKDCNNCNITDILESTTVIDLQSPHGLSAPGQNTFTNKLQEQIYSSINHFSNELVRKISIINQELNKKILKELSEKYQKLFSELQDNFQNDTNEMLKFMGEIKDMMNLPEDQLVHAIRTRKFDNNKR

Measured: binding

B1: Hop1 (pGAL1::HOP1), untagged (protein, UniProt P20050 1-605)
chain: MSNKQLVKPKTETKTEITTEQSQKLLQTMLTMSFGCLAFLRGLFPDDIFVDQRFVPEKVEKNYNKQNTSQNNSIKIKTLIRGKSAQADLLLDWLEKGVFKSIRLKCLKALSLGIFLEDPTDLLENYIFSFDYDEENNVNINVNLSGNKKGSKNADPENETISLLDSRRMVQQLMRRFIIITQSLEPLPQKKFLTMRLMFNDNVDEDYQPELFKDATFDKRATLKVPTNLDNDAIDVGTLNTKHHKVALSVLSAATSSMEKAGNTNFIRVDPFDLILQQQEENKLEESVPTKPQNFVTSQTTNVLGNLLNSSQASIQPTQFVSNNPVTGICSCECGLEVPKAATVLKTCKSCRKTLHGICYGNFLHSSIEKCFTCIFGPSLDTKWSKFQDLMMIRKVFRFLVRKKKGFPASITELIDSFINVEDQNNEVKERVAFALFVFFLDETLCLDNGGKPSQTIRYVTSSVLVDVKGIVIPNTRKQLNVNHEYKWHFTTSSPKAESFYQEVLPNSRKQVESWLQDITNLRKVYSEALSPSSTLQELDLNSSLPTQDPIISGQKRRRYDLDEYLEEDKSSVVNDTIKAKDFDESVPAKIRKISVSKKTLKSNW
binds: [1] | [2] | [3]

B2: GFP-Mek1 (pGAL1::GFP-MEK1) (enzyme, UniProt P24719 1-497)
chain: MRPLYSCNLATKDDIEMAGGVAPAHLEVNVGGYNTEQTIPIVKHQLVKVGRNDKECQLVLTNPSISSVHCVFWCVFFDEDSIPMFYVKDCSLNGTYLNGLLLKRDKTYLLKHCDVIELSQGSEENDIKKTRLVFMINDDLQSSLDPKLLDQMGFLREVDQWEITNRIVGNGTFGHVLITHNSKERDEDVCYHPENYAVKIIKLKPNKFDKEARILLRLDHPNIIKVYHTFCDRNNHLYIFQDLIPGGDLFSYLAKGDCLTSMSETESLLIVFQILQALNYLHDQDIVHRDLKLDNILLCTPEPCTRIVLADFGIAKDLNSNKERMHTVVGTPEYCAPEVGFRANRKAYQSFSRAATLEQRGYDSKCDLWSLGVITHIMLTGISPFYGDGSERSIIQNAKIGKLNFKLKQWDIVSDNAKSFVKDLLQTDVVKRLNSKQGLKHIWIAKHLSQLERLYYKKILCNNEGPKLESINSDWKRKLPKSVIISQAIPKKKKVLE
binds: [1] | [2] | [3]

— paper doi:10.1101/2022.04.06.487319 (bioRxiv, 2022)
